Test results as given in US20160151519A1 (JOHN HOPKINS UNIVERSITY, published 2016).
These are yes or no findings as the source states them, for the method shown. Some results given as binding are weak or reduced against the parent protein; the word gives no strength. For part of these data: Tags and fused reporters may be left off the sequences shown.

The chains behind the UniProt entries cited, without tags or fusion partners. Residues count along the entry.
UniProt P06731, residues 35-685: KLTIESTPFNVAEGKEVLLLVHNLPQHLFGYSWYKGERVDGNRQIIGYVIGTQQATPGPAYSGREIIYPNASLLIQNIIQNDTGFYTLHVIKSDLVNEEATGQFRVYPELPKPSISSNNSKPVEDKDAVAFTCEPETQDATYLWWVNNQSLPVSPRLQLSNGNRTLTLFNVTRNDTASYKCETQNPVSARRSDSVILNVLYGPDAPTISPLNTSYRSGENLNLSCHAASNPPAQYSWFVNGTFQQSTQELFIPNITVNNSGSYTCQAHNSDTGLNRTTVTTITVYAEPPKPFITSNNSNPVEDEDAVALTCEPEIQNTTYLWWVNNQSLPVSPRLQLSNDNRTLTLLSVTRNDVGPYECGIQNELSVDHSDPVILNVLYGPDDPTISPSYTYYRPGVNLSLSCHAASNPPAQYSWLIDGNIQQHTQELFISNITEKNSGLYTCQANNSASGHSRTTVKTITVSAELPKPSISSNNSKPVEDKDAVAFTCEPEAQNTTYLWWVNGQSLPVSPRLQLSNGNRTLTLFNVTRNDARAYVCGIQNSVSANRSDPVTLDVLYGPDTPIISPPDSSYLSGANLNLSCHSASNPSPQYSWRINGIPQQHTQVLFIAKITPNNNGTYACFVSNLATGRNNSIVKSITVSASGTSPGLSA

Key:
[1] = target: T1, E-selectin on CHO cells stably transfected with cDNA encoding full-length E-selectin (CHO-E) (UniProt P16581); test: blot rolling assay with CHO-E cells at 0.5 dyn/cm2
T1 sequence (looked up): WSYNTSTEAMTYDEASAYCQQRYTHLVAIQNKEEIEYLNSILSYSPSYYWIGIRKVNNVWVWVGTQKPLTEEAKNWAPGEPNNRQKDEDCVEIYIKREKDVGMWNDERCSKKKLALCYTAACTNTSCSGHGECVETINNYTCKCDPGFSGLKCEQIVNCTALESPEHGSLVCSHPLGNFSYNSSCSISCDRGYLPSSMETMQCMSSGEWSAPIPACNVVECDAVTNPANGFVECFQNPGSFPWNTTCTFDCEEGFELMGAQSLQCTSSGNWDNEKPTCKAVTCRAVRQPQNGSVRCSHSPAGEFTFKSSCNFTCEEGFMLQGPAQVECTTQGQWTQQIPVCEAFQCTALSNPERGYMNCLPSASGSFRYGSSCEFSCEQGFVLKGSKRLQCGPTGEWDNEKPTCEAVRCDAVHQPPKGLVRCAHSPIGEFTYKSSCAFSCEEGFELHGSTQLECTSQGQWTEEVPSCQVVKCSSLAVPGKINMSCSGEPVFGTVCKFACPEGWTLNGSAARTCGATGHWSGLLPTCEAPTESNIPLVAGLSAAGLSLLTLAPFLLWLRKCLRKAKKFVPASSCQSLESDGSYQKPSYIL

[2] = target: T2, E-selectin-IgG Fc chimera (human) (UniProt P16581); test: cell-free flow-based adhesion assay, CEA-coated microspheres over selectin substrates
T2 sequence (looked up): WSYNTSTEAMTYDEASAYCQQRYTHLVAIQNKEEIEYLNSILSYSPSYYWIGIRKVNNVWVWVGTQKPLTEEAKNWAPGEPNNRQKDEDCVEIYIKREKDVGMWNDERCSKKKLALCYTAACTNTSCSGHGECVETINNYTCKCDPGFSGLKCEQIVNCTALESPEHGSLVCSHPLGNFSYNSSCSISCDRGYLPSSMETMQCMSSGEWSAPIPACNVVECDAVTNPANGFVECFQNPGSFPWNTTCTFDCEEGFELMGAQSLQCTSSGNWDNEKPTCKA

[3] = target: T2, E-selectin-IgG Fc chimera (human); test: cell-free flow-based adhesion assay; difference attributed to slower average rolling velocities of the CD44-knockdown CEA microspheres

- binding [1]: binds
- binding [2]: binds
- binding [3]: binds
Substance: carcinoembryonic antigen (CEA) immunopurified from LS174T colon carcinoma cell lysate (from UniProt P06731 35-685) (ligand)
